These are yes or no findings as the source states them, for the method shown. Binding seen in cells or lysates may run through a third protein. Some binding calls cover weakened binding; strength is not graded here.
Target: Zinc Finger Protein 638 (ZNF638) (human (endogenous in A172)) (UniProt Q14966)
Test: co-IP

The chains behind the UniProt entries cited, without tags or fusion partners.
UniProt Q14966: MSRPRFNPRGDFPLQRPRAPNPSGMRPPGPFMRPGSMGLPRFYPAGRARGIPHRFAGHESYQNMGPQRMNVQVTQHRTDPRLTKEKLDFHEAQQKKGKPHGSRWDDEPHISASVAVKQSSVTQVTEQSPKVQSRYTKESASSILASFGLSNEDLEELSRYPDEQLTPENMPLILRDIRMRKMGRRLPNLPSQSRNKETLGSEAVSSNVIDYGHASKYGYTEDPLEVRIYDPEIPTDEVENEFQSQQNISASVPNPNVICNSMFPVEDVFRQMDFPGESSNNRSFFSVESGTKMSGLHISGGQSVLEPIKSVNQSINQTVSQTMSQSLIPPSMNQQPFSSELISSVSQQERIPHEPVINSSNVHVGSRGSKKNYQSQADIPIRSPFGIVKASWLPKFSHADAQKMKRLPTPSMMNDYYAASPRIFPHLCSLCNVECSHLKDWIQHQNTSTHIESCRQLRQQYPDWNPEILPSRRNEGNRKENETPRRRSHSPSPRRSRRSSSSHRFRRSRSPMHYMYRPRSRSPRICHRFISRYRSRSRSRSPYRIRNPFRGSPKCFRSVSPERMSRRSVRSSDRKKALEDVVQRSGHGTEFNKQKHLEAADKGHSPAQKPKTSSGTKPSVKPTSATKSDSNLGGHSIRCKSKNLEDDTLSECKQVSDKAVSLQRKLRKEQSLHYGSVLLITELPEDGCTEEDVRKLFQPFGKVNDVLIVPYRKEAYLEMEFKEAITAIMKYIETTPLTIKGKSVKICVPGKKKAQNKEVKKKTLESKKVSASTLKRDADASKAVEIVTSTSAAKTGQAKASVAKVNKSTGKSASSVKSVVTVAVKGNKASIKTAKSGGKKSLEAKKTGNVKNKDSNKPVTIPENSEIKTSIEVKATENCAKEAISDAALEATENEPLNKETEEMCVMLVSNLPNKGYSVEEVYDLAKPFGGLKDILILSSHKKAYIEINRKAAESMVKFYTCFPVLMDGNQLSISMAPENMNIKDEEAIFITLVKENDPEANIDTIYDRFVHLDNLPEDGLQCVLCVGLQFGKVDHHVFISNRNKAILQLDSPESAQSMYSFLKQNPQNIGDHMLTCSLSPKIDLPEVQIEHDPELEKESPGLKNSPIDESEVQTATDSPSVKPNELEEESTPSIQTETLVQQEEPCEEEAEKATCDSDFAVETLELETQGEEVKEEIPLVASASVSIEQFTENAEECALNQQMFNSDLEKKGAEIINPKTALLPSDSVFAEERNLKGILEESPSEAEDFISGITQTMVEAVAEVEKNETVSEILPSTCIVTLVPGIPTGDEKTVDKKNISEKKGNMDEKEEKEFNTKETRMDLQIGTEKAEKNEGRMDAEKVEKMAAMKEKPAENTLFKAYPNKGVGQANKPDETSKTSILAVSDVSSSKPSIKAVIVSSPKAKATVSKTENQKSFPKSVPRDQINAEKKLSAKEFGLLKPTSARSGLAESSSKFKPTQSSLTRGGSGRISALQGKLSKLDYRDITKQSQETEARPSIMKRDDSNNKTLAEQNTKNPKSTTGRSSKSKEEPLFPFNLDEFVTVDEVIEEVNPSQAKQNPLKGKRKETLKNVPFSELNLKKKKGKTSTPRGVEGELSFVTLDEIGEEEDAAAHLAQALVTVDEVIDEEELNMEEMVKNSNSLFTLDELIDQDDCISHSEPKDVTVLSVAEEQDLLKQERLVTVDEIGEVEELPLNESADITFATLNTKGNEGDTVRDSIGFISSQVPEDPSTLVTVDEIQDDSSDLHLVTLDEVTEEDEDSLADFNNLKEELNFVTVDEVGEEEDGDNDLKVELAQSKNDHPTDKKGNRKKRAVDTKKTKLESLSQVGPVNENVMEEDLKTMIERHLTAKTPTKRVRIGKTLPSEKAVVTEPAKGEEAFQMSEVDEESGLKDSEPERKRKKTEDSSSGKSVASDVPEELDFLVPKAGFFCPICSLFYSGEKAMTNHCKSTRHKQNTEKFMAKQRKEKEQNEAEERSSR
UniProt Q9UK61: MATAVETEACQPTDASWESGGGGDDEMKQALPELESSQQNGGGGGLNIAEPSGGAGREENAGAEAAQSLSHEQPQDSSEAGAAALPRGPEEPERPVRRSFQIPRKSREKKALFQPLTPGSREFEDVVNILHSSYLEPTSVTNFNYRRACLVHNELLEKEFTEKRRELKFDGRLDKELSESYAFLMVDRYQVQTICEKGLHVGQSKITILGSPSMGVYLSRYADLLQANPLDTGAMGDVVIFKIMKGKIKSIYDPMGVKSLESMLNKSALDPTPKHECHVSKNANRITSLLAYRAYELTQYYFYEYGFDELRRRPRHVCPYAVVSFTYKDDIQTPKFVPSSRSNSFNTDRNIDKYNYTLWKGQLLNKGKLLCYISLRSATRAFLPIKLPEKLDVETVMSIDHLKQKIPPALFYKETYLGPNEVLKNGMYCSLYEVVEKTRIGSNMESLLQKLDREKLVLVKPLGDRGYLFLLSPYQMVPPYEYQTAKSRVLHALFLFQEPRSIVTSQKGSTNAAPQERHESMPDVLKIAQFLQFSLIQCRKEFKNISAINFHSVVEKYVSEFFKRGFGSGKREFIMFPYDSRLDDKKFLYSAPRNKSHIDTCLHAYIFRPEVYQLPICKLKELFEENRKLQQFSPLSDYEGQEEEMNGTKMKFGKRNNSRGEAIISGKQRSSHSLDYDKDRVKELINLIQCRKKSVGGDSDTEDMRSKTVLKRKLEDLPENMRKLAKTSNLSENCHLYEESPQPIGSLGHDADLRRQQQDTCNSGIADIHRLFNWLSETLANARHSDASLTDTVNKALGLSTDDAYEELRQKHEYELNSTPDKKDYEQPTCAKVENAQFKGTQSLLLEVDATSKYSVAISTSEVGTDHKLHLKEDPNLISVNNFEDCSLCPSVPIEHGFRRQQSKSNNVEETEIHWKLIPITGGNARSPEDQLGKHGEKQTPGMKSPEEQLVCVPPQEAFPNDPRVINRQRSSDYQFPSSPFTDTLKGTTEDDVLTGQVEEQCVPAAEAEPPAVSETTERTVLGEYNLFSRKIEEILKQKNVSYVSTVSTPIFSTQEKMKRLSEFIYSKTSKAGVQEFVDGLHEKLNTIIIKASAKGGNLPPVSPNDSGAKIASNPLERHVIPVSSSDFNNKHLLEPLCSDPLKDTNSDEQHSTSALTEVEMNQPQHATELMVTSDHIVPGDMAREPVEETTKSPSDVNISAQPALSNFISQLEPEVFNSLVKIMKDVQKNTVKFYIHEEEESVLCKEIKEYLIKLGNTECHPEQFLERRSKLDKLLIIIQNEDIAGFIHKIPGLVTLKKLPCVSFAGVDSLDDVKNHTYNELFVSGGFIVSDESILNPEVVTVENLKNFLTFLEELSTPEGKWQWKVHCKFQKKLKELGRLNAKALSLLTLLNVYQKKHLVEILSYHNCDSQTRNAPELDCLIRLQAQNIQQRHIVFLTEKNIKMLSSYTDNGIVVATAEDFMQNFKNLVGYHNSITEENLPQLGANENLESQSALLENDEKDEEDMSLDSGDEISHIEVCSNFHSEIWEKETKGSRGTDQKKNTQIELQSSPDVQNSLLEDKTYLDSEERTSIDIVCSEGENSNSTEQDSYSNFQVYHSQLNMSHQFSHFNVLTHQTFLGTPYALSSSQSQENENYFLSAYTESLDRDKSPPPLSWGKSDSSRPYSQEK
UniProt Q99549: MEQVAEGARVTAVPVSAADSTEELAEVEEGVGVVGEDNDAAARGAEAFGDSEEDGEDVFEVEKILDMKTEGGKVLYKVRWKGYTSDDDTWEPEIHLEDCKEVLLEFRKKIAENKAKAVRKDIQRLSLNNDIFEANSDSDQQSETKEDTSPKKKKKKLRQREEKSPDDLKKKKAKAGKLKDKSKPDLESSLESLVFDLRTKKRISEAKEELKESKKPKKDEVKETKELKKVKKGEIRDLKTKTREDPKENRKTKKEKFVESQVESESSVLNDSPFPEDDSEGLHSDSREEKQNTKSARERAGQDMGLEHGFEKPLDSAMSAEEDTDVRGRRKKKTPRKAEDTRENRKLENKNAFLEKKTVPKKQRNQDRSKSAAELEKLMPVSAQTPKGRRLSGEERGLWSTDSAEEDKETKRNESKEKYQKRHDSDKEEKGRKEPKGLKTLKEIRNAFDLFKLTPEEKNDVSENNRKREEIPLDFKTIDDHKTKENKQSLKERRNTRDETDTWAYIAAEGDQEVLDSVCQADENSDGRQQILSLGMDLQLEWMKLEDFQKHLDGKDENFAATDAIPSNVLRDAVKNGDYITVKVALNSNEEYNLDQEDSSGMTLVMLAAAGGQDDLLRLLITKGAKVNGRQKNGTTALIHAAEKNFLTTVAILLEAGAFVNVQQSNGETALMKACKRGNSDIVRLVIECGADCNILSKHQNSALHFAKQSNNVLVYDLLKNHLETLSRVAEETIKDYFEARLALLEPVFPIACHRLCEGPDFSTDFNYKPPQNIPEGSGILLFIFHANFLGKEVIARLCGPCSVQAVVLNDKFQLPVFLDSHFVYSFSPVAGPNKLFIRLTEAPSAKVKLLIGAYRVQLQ

Row | binding | Substance
1 | binds | TASOR (Transcription Activation Suppressor) (from UniProt Q9UK61 1-1670)
2 | binds | MPP8 (M-Phase Phosphoprotein 8) (from UniProt Q99549 1-860)

From publication doi:10.1101/2024.10.13.618076
